# In article PMC12235606:
# These are yes or no findings as the source states them, for the method shown. In cells and extracts the contact can be indirect. Some results given as binding are weak or reduced against the parent protein; the word gives no strength.
# T1: Ribonucleotide reductase regulatory subunit M2 (RRM2) (human (endogenous in A2780/DDP)) (UniProt P31350)
# T1 sequence: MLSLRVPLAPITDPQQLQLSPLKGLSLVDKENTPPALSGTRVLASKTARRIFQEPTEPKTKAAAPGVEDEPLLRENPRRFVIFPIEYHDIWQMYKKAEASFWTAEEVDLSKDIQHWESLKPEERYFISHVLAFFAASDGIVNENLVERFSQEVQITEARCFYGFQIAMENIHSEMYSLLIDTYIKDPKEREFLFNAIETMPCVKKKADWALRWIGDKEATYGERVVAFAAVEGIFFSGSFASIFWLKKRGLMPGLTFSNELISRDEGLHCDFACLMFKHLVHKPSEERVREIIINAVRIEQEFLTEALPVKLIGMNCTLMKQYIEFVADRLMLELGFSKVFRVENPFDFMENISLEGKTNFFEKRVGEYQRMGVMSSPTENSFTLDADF
# B1: cell division cycle associated 7 (CDCA7) (protein, UniProt Q9BWT1 1-371)
# chain: MDARRVPQKDLRVKKNLKKFRYVKLISMETSSSSDDSCDSFASDNFANTRLQSVREGCRTRSQCRHSGPLRVAMKFPARSTRGATNKKAESRQPSENSVTDSNSDSEDESGMNFLEKRALNIKQNKAMLAKLMSELESFPGSFRGRHPLPGSDSQSRRPRRRTFPGVASRRNPERRARPLTRSRSRILGSLDALPMEEEEEEDKYMLVRKRKTVDGYMNEDDLPRSRRSRSSVTLPHIIRPVEEITEEELENVCSNSREKIYNRSLGSTCHQCRQKTIDTKTNCRNPDCWGVRGQFCGPCLRNRYGEEVRDALLDPNWHCPPCRGICNCSFCRQRDGRCATGVLVYLAKYHGFGNVHAYLKSLKQEFEMQA
# Target: T1, Ribonucleotide reductase regulatory subunit M2 (RRM2) (human (endogenous in A2780/DDP))
# Assay: co-IP; A2780/DDP cell lysates (Western blotting and IP lysis buffer with protease inhibitors) incubated overnight with Protein A + G beads carrying anti-RRM2 antibody or normal IgG; washed four times; Western blot for RRM2 and CDCA7
binder,measurement,value
B1,binding,binds
